Laboratory results reported in US10010520B2, “Combined application of isothiocyanate compound and anti-cancer medicine” (JC (WUXI) COMPANY, INC., priority 2013, dated 2018).
Where “and” joins values, the source holds several entries; their conditions need not be identical. Identical values can stand only once. Like-named read-outs stand apart in the source and are kept apart here. At least one read-out could not be matched to a standard name with certainty.

Experiments:
LNCaP cells = test: CellTiter-Glo cell viability, drugs alone or in combination, LNCaP cells; format: cell-based, human; settings: 72 hrs
Description: Cell culture: Androgen-dependent human prostate cancer cells LNCaP, from Shanghai Medicilon Ltd., were placed in a 37° C., 5% CO2 cell incubator, and were cultured in RPMI1640 culture medium with 10% FBS. Androgen-independent human prostate cancer cells DU145, PC-3, from Shanghai Medicilon Ltd., were placed in a 37° C., 5% CO2 cell incubator, and were cultured in F12 culture medium with 10% FBS.
(§1) isothiocyanates or derivatives thereof and DNA-effecting or influencing anticancer drugs, kinase-inhibiting anticancer drugs or hormonal anticancer drugs for endocrine therapy were administered separately or in combination to cancer cells. Cells were seeded into 384-well plates, and cultured for 24 hours in a CO2 incubator. Drugs were dissolved in DMSO and diluted to 9 concentration-gradients in 96 well plates, and then added to corresponding cells in 384-well plates, in which the concentrations of DMSO in 384 well plates were less than 1%. Triplicate wells were set for each concentration. After administration, the cells were cultured in the CO2 incubator for another 72 hrs, and afterwards, cell viability was tested by using CellTiter-Glo® reagent and luminescence detector. And IC50 values of each administration group were calculated.
CI value was calculated by the following formula: CI=(Am)50/(As)50+(Bm)50/(Bs)50, […]
(§2) After administration, cells were cultured in the CO2 incubator for another 72 hrs, and afterwards, cell viability was tested by using CellTiter-Glo® reagent and luminescence detector. Curves were plotted according to concentrations or logarithm concentrations of drug A vs cell inhibition rate in the corresponding cell well, and IC50, i.e. (Am)50 was calculated.
9 concentration gradients of drug A were set (A1, A2, A3, A4, A5, A6, A7, A8, A9), and administrated alone to the corresponding cells in the 384 well plate, and triplicate wells were set for each administration concentration. After administration, the cells were cultured in the CO2 incubator for another 72 hrs, and afterwards, cell viability was tested by using CellTiter-Glo® reagent and luminescence detector. […]

[1] = tested on: human kidney cancer cells 786-O; test: CellTiter-Glo cell viability, drugs alone or in combination, 786-O cells; settings: read-out: (Bs)50, IC50 of drug B when used alone, 72 hrs
[2] = tested on: human leukemia HL-60 cells; test: CellTiter-Glo cell viability, drugs alone or in combination, HL-60 cells; format: cell-based; settings: 72 hrs
Description: as §1
(§3) CI value was calculated by the following formula: CI=(Am)50/(As)50+(Bm)50/(Bs)50,
(§4) Triplicate wells were set for each co-administration cell well.
as §2, with “calculated. […]” for “calculated.”

[3] = tested on: Human breast cancer MDA-MB-231 cells; test: CellTiter-Glo cell viability, drugs alone or in combination, MDA-MB-231 cells; settings: read-out: (As)50, IC50 of drug A when used alone, 72 hrs
HeLa cells = test: CellTiter-Glo cell viability, drugs alone or in combination, HeLa cells; format: cell-based, human; settings: 72 hrs, read-out: (As)50, IC50 of drug A when used alone
Description: as §1, §3, §4
as §2, with “calculated. […]” for “calculated.”

[4] = read-out: (Bs)50, IC50 of drug B when used alone
[5] = read-out: (As)50, IC50 of drug A when used alone

C[C@]12CC[C@H](O)CC1=CC[C@@H]1[C@@H]2CC[C@]2(C)C(c3cccnc3)=CC[C@@H]12 [Abiraterone, abiraterone, reference compound]
IC50 (LNCaP cells; [4]): 26.9 µM

S=C=NCc1ccccc1 [Benzyl isothiocyanate, benzyl isothiocyanate]
IC50 (LNCaP cells; [5]): 32.2 µM

Cc1ccc(Nc2nccc(N(C)c3ccc4c(C)n(C)nc4c3)n2)cc1S(N)(=O)=O [Pazopanib, pazopanib, reference compound]
IC50 [1]: 106 µM

S=C=NCCc1ccccc1 [Phenethyl isothiocyanate]
IC50 [2, 5]: 7.62 µM
IC50 (LNCaP cells; [5]): 27.8 µM
IC50 [3]: 20.5 µM
IC50 (HeLa cells): 16.9 µM and 24.6 µM

Cc1cn(-c2cc(NC(=O)c3ccc(C)c(Nc4nccc(-c5cccnc5)n4)c3)cc(C(F)(F)F)c2)cn1 [nilotinib, reference compound]
IC50 [2, 4]: 4.44 µM
